Experimental findings from EP3071301B1, “QUERCUS PLANT EXTRACT AS ACTIVE AGENT WITH SKIN ANTI-AGEING PROPERTIES AND COSMETIC COMPOSITIONS CONTAINING IT” (Charlois Cosmetiques, priority 2013, dated 2015) are described below.

Data set [1] in a line: Hydrogen peroxide assay (Amplex Red Hydrogen Peroxide/Peroxidase kit). The following applies: 50 µM. The text has this: Le principe actif E2 conforme à l'invention est soumis au test suivant, à des concentrations de 0,1; 0,3; 0,5; 1; 3 % p/p (% en poids de principe actif à tester, par rapport au poids final de milieu contenant le principe actif).
L'essai est réalisé au moyen du kit de dosage Amplex® Red Hydrogen Peroxyde/Peroxydase Assay Kit (Molecular Probes®), dont le réactif 10-acétyl-3,7-dihydroxyphénoxazine est utilisé pour déterminer la quantité de peroxyde d'hydrogène présent. Le substrat non coloré réagit avec le peroxyde d'hydrogène (H2O2) dans un rapport stoechiométrique 1:1 pour produire de la résofurine hautement fluorescente. […]
Le principe actif selon l'invention et le BHA (3-tert-butyl-4-hydroxyanisole), en tant que témoin, à une concentration de 50 µM, sont incubés en présence d'H2O2, de réactif Amplex® Red et d'enzyme Horse Radish Peroxydase (HRP) pendant 30 min à température ambiante. Puis la fluorescence est mesurée, pour une longueur d'onde d'excitation de 540 nm et une longueur d'onde d'émission de 590 nm.
Des contrôles d'auto-fluorescence et d'absorption de fluorescence (quenching) sont aussi réalisés pour chaque concentration de principe actif selon l'invention et du témoin. Les contrôles d'absorption de fluorescence sont réalisés en incubant le peroxyde d'hydrogène (H2O2), le réactif Amplex® Redet l'enzyme HRP pendant 30 min. […]

A further data set has as its system MMP totales. Kind of data set: Total matrix metalloprotease (MMP) activity inhibition, fluorogenic peptide. The format is biochemical, humains. The following applies: quenching control. The text has this: Le principe actif E2 conforme à l'invention est soumis au test suivant, à des concentrations de 1 et 3 % p/p, selon le protocole décrit dans la publication de Sim et al., 2007, Arch Pharm Res, 30(3): 290-298.
Les MMP totales (obtenues selon un protocole standard à partir de surnageants de fibroblastes dermiques humains normaux, irradiés avec des UVB (20 mJ/cm^2)) sont traitées par le mélange inflammatoire acétate de phorbol myristate (PMA) et facteur de nécrose tumorale (TNFα).
Le substrat fluorescent est le peptide fluorogénique décrit dans la publication de Lee et al., 1999, Annals of the New York Academy of Sciences, 878: 635-637, et commercialisé sous la référence M6412 par la société Sigma-Aldrich.
Le principe actif E2 conforme à l'invention ou le témoin (O-phénantroline testée à 0,03; 0,1; 0,3 et 1 mM) sont préincubés pendant 10 min sur glace en présence des MMP totales activées, puis le substrat fluorescent est ajouté. Les plaques ont été incubées pendant 3h à 37°C. Un contrôle d'interférence du composé (composé en présence du mélange réactionnel sans enzyme) et un contrôle « quenching » (mélange réactionnel contenant le substrat et l'enzyme dans lequel le composé n'est ajouté qu'en fin d'incubation) ont été réalisés en parallèle. Le contrôle […] permet de vérifier l'absorption non spécifique de la fluorescence par le composé et donc la spécificité de l'inhibition observée dans la condition test correspondante.
Chaque expérience est tripliquée.
A la fin de l'incubation, la fluorescence produite suite à la dégradation du substrat est mesurée par fluorimétrie pour une longueur d'onde d'excitation de 328 nm et une longueur d'onde d'émission de 393 nm, au moyen du dispositif SpectroMax Gemini, Molecular Devices.
Le % d'inhibition des MMPs totales est calculé pour chaque échantillon testé. Les résultats obtenus sont montrés dans le tableau 6 ci-après. Tableau 6 - Inhibition de l'activité des MMP totales par le principe actif E2 conforme à l'invention

For `COc1ccc(O)c(C(C)(C)C)c1` [BHA, 3-tert-butyl-4-hydroxyanisole], the “Intensité de fluorescence (UA)” value in data set [1] (fluorescence absorption (quenching) control) was 3007 UA. The “% quenching” value in data set [1] (quenching control) turned out to be 1%.
For the molecule `c1cnc2c(c1)ccc1cccnc12` [O-Phénanthroline], the “Quenching (%)” value in the data set on MMP totales (0,1 mM) is 7%; with MMP totales (0,03 mM), 3%; with MMP totales (0,3 mM), 11%; in the data set with MMP totales (1 mM), 27%.
